Laboratory results as given in publication PMC12745361, “Dysadherin/YAP axis fuels stem plasticity and immune escape in liver cancer” (Signal Transduction and Targeted Therapy, 2025).
Results are given in words; binding and its absence hold for the method and conditions named. In cells and extracts the contact can be indirect. Some results given as binding are weak or reduced against the parent protein; the word gives no strength.

Protein sequences, listed by entry. Tags and fused reporters are not part of them. Residues count along the entry.
UniProt P02751, residues 32-2477: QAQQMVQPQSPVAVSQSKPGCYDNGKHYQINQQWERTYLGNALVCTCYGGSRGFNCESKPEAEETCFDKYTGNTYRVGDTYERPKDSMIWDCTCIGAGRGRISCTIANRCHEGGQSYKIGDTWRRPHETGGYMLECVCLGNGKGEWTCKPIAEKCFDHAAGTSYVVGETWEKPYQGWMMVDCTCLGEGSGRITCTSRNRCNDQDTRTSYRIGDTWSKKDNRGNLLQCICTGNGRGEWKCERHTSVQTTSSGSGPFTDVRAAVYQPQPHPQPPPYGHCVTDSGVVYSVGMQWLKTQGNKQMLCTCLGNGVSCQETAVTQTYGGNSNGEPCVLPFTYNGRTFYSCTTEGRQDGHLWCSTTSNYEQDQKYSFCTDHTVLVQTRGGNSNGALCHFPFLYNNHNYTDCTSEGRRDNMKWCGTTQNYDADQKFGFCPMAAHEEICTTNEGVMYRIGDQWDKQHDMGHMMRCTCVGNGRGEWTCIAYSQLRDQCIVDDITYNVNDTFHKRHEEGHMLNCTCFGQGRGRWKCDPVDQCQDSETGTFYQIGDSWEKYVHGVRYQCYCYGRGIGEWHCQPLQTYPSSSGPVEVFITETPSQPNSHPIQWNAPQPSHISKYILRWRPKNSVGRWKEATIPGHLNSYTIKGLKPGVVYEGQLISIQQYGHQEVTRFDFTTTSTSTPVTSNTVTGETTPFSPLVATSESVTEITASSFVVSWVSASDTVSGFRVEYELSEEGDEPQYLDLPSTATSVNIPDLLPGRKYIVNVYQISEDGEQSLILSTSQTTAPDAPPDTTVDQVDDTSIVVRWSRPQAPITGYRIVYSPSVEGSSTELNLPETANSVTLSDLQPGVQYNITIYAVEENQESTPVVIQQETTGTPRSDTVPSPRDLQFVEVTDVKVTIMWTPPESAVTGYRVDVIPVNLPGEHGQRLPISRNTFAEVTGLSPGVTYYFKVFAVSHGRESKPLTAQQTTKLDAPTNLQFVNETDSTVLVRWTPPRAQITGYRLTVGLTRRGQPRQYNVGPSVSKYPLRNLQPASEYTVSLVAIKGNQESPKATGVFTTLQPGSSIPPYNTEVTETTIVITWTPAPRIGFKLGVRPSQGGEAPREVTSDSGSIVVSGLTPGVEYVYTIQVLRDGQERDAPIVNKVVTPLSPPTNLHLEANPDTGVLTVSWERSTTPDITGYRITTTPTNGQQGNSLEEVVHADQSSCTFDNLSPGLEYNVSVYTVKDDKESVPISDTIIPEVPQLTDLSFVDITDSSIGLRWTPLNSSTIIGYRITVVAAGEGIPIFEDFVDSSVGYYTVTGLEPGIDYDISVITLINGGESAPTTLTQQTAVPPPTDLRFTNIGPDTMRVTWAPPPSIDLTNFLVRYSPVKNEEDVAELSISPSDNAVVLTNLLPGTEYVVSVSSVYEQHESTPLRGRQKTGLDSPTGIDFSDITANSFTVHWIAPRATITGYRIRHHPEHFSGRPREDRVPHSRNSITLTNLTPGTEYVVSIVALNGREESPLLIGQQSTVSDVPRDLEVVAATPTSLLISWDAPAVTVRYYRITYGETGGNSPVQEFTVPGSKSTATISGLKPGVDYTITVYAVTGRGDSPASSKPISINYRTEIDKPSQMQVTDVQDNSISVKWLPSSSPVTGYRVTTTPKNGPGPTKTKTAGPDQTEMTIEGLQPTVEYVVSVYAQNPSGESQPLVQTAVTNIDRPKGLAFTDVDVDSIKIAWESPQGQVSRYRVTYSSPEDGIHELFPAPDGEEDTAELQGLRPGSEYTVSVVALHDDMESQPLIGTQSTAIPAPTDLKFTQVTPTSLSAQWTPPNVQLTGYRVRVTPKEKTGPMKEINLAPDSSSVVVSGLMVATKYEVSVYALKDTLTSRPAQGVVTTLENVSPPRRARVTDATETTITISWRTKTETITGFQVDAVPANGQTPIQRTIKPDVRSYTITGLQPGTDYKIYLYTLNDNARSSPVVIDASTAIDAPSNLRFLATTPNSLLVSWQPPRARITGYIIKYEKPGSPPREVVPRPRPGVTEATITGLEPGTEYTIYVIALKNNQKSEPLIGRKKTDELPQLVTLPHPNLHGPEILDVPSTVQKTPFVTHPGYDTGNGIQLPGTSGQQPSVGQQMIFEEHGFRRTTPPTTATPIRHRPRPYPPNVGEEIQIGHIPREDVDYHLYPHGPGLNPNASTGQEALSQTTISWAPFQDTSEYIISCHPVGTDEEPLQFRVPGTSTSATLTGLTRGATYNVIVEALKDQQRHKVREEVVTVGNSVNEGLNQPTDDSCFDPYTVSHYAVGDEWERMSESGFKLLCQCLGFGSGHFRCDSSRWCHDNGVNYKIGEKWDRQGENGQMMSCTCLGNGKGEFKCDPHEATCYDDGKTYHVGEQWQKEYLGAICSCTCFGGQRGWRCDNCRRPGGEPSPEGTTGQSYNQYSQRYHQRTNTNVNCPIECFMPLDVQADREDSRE

Molecular target: T1, dysadherin (human (endogenous in HCC cells)) (UniProt Q96DB9)
T1 sequence: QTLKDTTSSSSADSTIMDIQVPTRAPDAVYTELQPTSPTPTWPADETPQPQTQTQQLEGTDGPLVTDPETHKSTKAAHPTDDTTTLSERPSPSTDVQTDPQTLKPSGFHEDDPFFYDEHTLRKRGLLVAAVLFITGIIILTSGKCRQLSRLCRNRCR
Assay: co-IP; coimmunoprecipitation of endogenous proteins in the HCC model; cell line and precipitated protein not given

Substance: fibronectin (from UniProt P02751 32-2477)
- binding: binds
